Patent publication US20080146606A1, “NOVEL COMPOUNDS” (priority 2006, published 2008)
Some results were stated once for a whole list of compounds, not compound by compound.

Assays:
[1] = tested on: LPS induced neutrophilia; test: Intranasally dosed LPS induced neutrophilia in the male CD rat; format: in vivo; settings: at 5 μg/kg
[2] = biological target: T1, Recombinant human IKKβ (residues 5-756) (Homo sapiens, UniProt O14920); test: IKK2 assay (TR-FRET); format: biochemical
T1 construct: Recombinant human IKKβ (residues 5-756); GST (C); made in house
T1 sequence (O14920 5-756): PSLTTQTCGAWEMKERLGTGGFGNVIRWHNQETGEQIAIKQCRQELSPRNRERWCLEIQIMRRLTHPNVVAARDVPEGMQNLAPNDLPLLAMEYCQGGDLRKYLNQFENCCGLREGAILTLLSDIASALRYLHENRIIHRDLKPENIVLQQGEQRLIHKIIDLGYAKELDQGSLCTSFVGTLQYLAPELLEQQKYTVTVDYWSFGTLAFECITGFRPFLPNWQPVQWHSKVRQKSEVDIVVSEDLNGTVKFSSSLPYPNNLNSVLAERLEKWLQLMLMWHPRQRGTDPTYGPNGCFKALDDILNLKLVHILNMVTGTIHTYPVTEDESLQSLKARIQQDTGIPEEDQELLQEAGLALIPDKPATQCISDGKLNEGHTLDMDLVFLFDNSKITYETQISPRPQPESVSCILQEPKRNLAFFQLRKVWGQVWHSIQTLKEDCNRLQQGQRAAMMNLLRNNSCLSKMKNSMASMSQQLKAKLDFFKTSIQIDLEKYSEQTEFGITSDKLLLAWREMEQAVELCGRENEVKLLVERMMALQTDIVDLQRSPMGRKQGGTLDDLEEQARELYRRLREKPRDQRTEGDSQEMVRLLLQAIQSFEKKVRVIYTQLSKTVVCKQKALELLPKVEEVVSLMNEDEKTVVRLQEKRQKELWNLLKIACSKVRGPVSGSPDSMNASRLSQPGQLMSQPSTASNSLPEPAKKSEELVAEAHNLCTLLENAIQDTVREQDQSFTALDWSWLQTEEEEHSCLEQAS

SMILES	% inhibition of LPS induced neutrophilia [1] [%]	pIC50 potency against IKK2 [2]
CCc1cc2c(-c3ccc(S(=O)(=O)NCCN)cc3)ccnc2[nH]1.O=C(O)C(F)(F)F [Example 146b, N-(2-Aminoethyl)-4-(2-ethyl-1H-pyrrolo[2,3-b]pyridin-4-yl)benzenesulfonamide trifluoroacetate]	> 50	
Cc1cc2c(-c3ccc(S(=O)(=O)NC4CCNCC4)cc3)ccnc2[nH]1.O=C(O)C(F)(F)F [Example 82, 4-(2-methyl-1H-pyrrolo[2,3-b]pyridin-4-yl)-N-4-piperidinylbenzenesulfonamide trifluoroacetate]	> 50	≥ 5.0
CCc1cc2c(-c3ccc(S(=O)(=O)NCCN)cc3)ccnc2[nH]1.Cl.Cl [Example 146c, N-(2-Aminoethyl)-4-(2-ethyl-1H-pyrrolo[2,3-b]pyridin-4-yl)benzenesulfonamide bis-hydrochloride salt]	> 50	
CN1CCC(NS(=O)(=O)c2ccc(-c3ccnc4[nH]c(C(F)F)cc34)cc2)CC1.O=C(O)C(F)(F)F [Example 177, 4-[2-(difluoromethyl)-1H-pyrrolo[2,3-b]pyridin-4-yl]-N-(1-methyl-4-piperidinyl)benzenesulfona-mide trifluoroacetate]	> 50	≥ 5.0
CCc1cc2c(-c3ccc(S(=O)(=O)NC4CCS(=O)(=O)CC4)cc3)ccnc2[nH]1.O=C(O)C(F)(F)F [Example 118, N-(1,1-dioxidotetrahydro-2H-thiopyran-4-yl)-4-(2-ethyl-1H-pyrrolo[2,3-b]pyridin-4-yl)benzenesulfonamidetrifluoroacetate]	> 50	≥ 5.0
COc1cccc(NC(=O)Cc2cc3c(-c4ccc(NS(C)(=O)=O)cc4)ccnc3[nH]2)c1.O=C(O)C(F)(F)F [Example 20, N-[3-(methyloxy)phenyl]-2-(4-{4-[(methylsulfonyl)amino]phenyl}-1H-pyrrolo[2,3-b]pyridin-2-yl)acetamide trifluoroacetate]		≥ 5.0
CS(=O)(=O)Nc1ccc(-c2ccnc3[nH]c(CC(=O)NC4CCCCC4)cc23)cc1.O=C(O)C(F)(F)F [Example 18, N-cyclohexyl-2-(4-{4-[(methylsulfonyl)amino]phenyl}-1H-pyrrolo[2,3-b]pyridin-2-yl)acetamide trifluoroacetate]		≥ 5.0
CC(C)c1cc2c(-c3ccc(S(=O)(=O)NCCN)cc3)ccnc2[nH]1.O=C(O)C(F)(F)F [Example 149, N-(2-aminoethyl)-4-[2-(1-methylethyl)-1H-pyrrolo[2,3-b]pyridin-4-yl]benzenesulfonamidetrifluoroacetate]		≥ 5.0
CC[C@H](CO)NS(=O)(=O)c1ccc(-c2ccnc3[nH]c(C)cc23)cc1 [Example 236, N-[(1R)-1-(hydroxymethyl)propyl]-4-(2-methyl-1H-pyrrolo[2,3-b]pyridin-4-yl)benzenesulfonamide]		≥ 5.0
O=C(O)C(F)(F)F.O=S(=O)(c1ccc(-c2ccnc3[nH]c(COc4ccccn4)cc23)cc1)N1CCCC1 [Example 61, 2-[(2-pyridinyloxy)methyl]-4-[4-(1-pyrrolidinylsulfonyl)phenyl]-1H-pyrrolo[2,3-b]pyridine trifluoroacetate]		≥ 5.0
O=C(O)C(F)(F)F.O=S(=O)(c1ccc(-c2ccnc3[nH]c(COc4cncc(Cl)c4)cc23)cc1)N1CCCC1 [Example 57, 2-{[(5-chloro-3-pyridinyl)oxy]methyl}-4-[4-(1-pyrrolidinylsulfonyl)phenyl]-1H-pyrrolo[2,3-b]pyridine trifluoroacetate]		≥ 5.0
CN1CCC(N(C)S(=O)(=O)c2ccc(-c3ccnc4[nH]c(C(F)F)cc34)cc2)CC1.O=C(O)C(F)(F)F [Example 172, 4-[2-(difluoromethyl)-1H-pyrrolo[2,3-b]pyridin-4-yl]-N-methyl-N-(1-methyl-4-piperidinyl)benzenesulfona-mide trifluoroacetate]		≥ 5.0
CCCCNS(=O)(=O)c1ccc(-c2ccnc3[nH]c(C)cc23)cc1.O=C(O)C(F)(F)F [Example 162, N-butyl-4-(2-methyl-1H-pyrrolo[2,3-b]pyridin-4-yl)benzenesulfonamidetrifluoroacetate]		≥ 5.0
O=S(=O)(NC1CCNCC1)c1ccc(-c2ccnc3[nH]c(Cn4ccnn4)cc23)cc1 [Example 124, N-4-piperidinyl-4-[2-(1H-1,2,3-triazol-1-ylmethyl)-1H-pyrrolo[2,3-b]pyridin-4-yl]benzenesulfonamide]		≥ 5.0
O=C(O)C(F)(F)F.O=S(=O)(c1ccc(-c2ccnc3[nH]c(CNCC4CCCCC4)cc23)cc1)N1CCCC1 [Example 34, (cyclohexylmethyl)({4-[4-(1-pyrrolidinylsulfonyl)phenyl]-1H-pyrrolo[2,3-b]pyridin-2-yl}methyl)amine trifluoroacetate]		≥ 5.0
Cc1cc2c(-c3ccc(S(=O)(=O)N[C@@H](C)[C@@H](C)O)cc3)ccnc2[nH]1 [Example 192, N-[(1S,2R)-2-Hydroxy-1-methylpropyl]-4-(2-methyl-1H-pyrrolo[2,3-b]pyridin-4-yl)benzenesulfonamide]		≥ 5.0
CC(C)(C)c1cc2c(-c3ccc(S(=O)(=O)N4CCCC4)cc3)ccnc2[nH]1.O=C(O)C(F)(F)F [Example 109, 2-(1,1-dimethylethyl)-4-[4-(1-pyrrolidinylsulfonyl)phenyl]-1H-pyrrolo[2,3-b]pyridine trifluoroacetate]		≥ 5.0
O=C(O)C(F)(F)F.O=S(=O)(c1ccc(-c2ccnc3[nH]c(C4CC4)cc23)cc1)N1CCCC1 [Example 123, 2-cyclopropyl-4-[4-(1-pyrrolidinylsulfonyl)phenyl]-1H-pyrrolo[2,3-b]pyridinetrifluoroacetate]		≥ 5.0
CC[C@@H](CO)NS(=O)(=O)c1ccc(-c2ccnc3[nH]c(C)cc23)cc1 [Example 237, N-[(1S)-1-(hydroxymethyl)propyl]-4-(2-methyl-1H-pyrrolo[2,3-b]pyridin-4-yl)benzenesulfonamide]		≥ 5.0
CN(CCO)S(=O)(=O)c1ccc(-c2ccnc3[nH]c(Cn4ccnn4)cc23)cc1 [Example 126, N-(2-hydroxyethyl)-N-methyl-4-[2-(1H-1,2,3-triazol-1-ylmethyl)-1H-pyrrolo[2,3-b]pyridin-4-yl]benzenesulfonamide]		≥ 5.0
CS(=O)(=O)Nc1ccc(-c2ccnc3[nH]c(CC(=O)Nc4cccc(Cl)c4)cc23)cc1.O=C(O)C(F)(F)F [Example 19, N-(3-chlorophenyl)-2-(4-{4-[(methylsulfonyl)amino]phenyl}-1H-pyrrolo[2,3-b]pyridin-2-yl)acetamide trifluoroacetate]		≥ 5.0
O=C(O)C(F)(F)F.O=S(=O)(c1ccc(-c2ccnc3[nH]c(C4CCC4)cc23)cc1)N1CCCC1 [Example 113, 2-cyclobutyl-4-[4-(1-pyrrolidinylsulfonyl)phenyl]-1H-pyrrolo[2,3-b]pyridinetrifluoroacetate]		≥ 5.0
CC(C)(C)OC(=O)N1CCN(Cc2cc3c(-c4ccc(S(=O)(=O)N5CCCC5)cc4)ccnc3[nH]2)CC1 [Example 37, 1,1-dimethylethyl 4-({4-[4-(1-pyrrolidinylsulfonyl)phenyl]-1H-pyrrolo[2,3-b]pyridin-2-yl}methyl)-1-piperazinecarboxylate]		≥ 5.0
O=S(=O)(NCC1(O)CCCCC1)c1ccc(-c2ccnc3[nH]c(C4CC4)cc23)cc1 [Example 219, 4-(2-cyclopropyl-1H-pyrrolo[2,3-b]pyridin-4-yl)-N-[(1-hydroxycyclohexyl)methyl]benzenesulfonamide]		≥ 5.0
CCCCNS(=O)(=O)c1ccc(-c2ccnc3[nH]c(C(F)F)cc23)cc1.O=C(O)C(F)(F)F [Example 167, N-butyl-4-[2-(difluoromethyl)-1H-pyrrolo[2,3-b]pyridin-4-yl]benzenesulfonamidetrifluoroacetate]		≥ 5.0
NC1CCN(S(=O)(=O)c2ccc(-c3ccnc4[nH]c(C(F)(F)F)cc34)cc2)CC1.O=CO [Example 142, formic acid - 1-({4-[2-(trifluoromethyl)-1H-pyrrolo[2,3-b]pyridin-4-yl]phenyl}sulfonyl)-4-piperidinamine]		≥ 5.0
CC(C)(C)NS(=O)(=O)c1ccc(-c2ccnc3[nH]c(C(F)F)cc23)cc1.O=C(O)C(F)(F)F [Example 166, 4-[2-(difluoromethyl)-1H-pyrrolo[2,3-b]pyridin-4-yl]-N-(1,1-dimethylethyl)benzenesulfon-amide trifluoroacetate]		≥ 5.0
O=S(=O)(N[C@H]1CCC[C@@H]1O)c1ccc(-c2ccnc3[nH]c(C4CC4)cc23)cc1 [Example 215, 4-(2-cyclopropyl-1H-pyrrolo[2,3-b]pyridin-4-yl)-N-[(1S,2S)-2-hydroxycyclopentyl]benzenesulfonamide]		≥ 5.0
